This data set can be described thus: general procedure: Fmoc solid-phase peptide synthesis; 2-chlorotrityl chloride resin (1.5 mmol g^-1 loading capacity); HBTU/DIPEA. The following applies: whole synthesis.
Where [1] appears, read: scale of the general procedure 0.10 mmol.

Regarding “EuK(2-Nal-Trx-Lys[Gly-Tyr-Lys(DOTA)]-Glu-4-p-IPBA)”, where the note is “scale 0.10 mmol”, the isolated mass amounted to 19 mg and the isolated yield worked out at 10%. Besides, the “final purity (method not given)” value under setting [1] is reported as “greater than 95%”.

The substance “EuK(2-Nal-Trx-Lys[Met-Val-Lys(DOTA)]-Glu-4-p-IPBA)” yielded an isolated mass of 12 mg. Also, under setting [1], the “final purity (method not given)” value is on record as “greater than 95%” and the isolated yield is on record as 5.8%.

(Values after publication PMC9993039 (Royal Society Open Science, 2023).)
